Data source: PubChem BioAssay AID652272 (Drosophila RNAi Screening Center, 2013)
In all, the deposit lists about 21,000 reagents; this is an unselected part of those that have a named target and a result. Over the whole deposit, 503 (2.4%) are marked active. 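Raw plate light values, not normalised; calls rest on replicate z-scores that were not deposited; hits include reporter decreases as well as increases.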 A plus sign joins genes that one reagent is predicted to hit. The record does not give: the amount of reagent, the time to read-out.

Purpose: 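Genome-wide knock-down search for components of Hedgehog signalling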 (primary screen)
System: Drosophila clone 8 (Cl8) cells
Knock-down reagent: long dsRNA against Drosophila genes
Measured: 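Firefly light from a Hedgehog-responsive ptc promoter reporter and Renilla reference light, both read on a plate reader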
Direction: firefly Hh reporter signal: higher = more ptc reporter light; Renilla reference signal: higher = more Renilla control light
Call rule: 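Hit when the z-score averaged over two replicates is under -2 or over +3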
Meaning of the calls: active = hit: reporter lowered or raised; inactive = not a hit

| gene | PubChem SID | firefly Hh reporter signal, replicate 1 | firefly Hh reporter signal, replicate 2 | firefly Hh reporter signal, replicate 3 | Renilla reference signal, replicate 1 | Renilla reference signal, replicate 2 | call |
| --- | --- | --- | --- | --- | --- | --- | --- |
| CG13144 | SID104182033 | 76276 | 67488 | – | 2420 | 6108 | inactive |
| CG40005 (retired record) + cta | SID104183555 | 1.83e5 | 3.32e5 | – | 5035 | 14115 | inactive |
| CG4362 | SID104195359 | 4.92e5 | 96770 | – | 28856 | 2416 | inactive |
| E(spl)m7-HLH | SID104196488 | 4.69e5 | 92275 | – | 27635 | 3126 | inactive |
| IntS6 | SID104198073 | 82827 | 92564 | – | 2052 | 2566 | inactive |
| RpS26 | SID104183212 | 35863 | 14578 | – | 1746 | 1530 | active |
| qsm | SID104185688 | 1.20e5 | 2.83e5 | – | 3331 | 10794 | inactive |
| qsm | SID104186185 | 52480 | 48880 | – | 1684 | 3179 | inactive |
| Prosbeta4R2 | SID104180295 | 84832 | 58517 | – | 3724 | 2573 | inactive |
| Pyroxd1 | SID104181890 | 60077 | 32749 | – | 1542 | 3317 | inactive |
| Tim23 | SID104201032 | 7.46e5 | 2.53e5 | – | 45240 | 6592 | inactive |
| lush | SID104191156 | 1.06e5 | 99652 | – | 3689 | 2752 | inactive |
| tamo | SID104184238 | 1.23e5 | 98454 | – | 5034 | 4339 | inactive |
| CG7798 | SID104186839 | 55474 | 31531 | – | 1349 | 2490 | inactive |
| CG43326 + CG43325 | SID104183949 | 70265 | 49736 | – | 1955 | 4407 | inactive |
| CG6118 | SID104195760 | 55571 | 21828 | – | 1595 | 786 | inactive |
| CG31183 | SID104194195 | 69540 | 69172 | – | 1990 | 1904 | inactive |
| CG31183 | SID104195346 | 1.13e5 | 74736 | – | 3928 | 3040 | inactive |
| CAH14 | SID104184026 | 1.46e5 | 87675 | – | 3968 | 7393 | inactive |
| gce | SID104199405 | 97003 | 2.95e5 | – | 3532 | 12493 | inactive |
| gce | SID104199766 | 71612 | 1.71e5 | – | 2649 | 7346 | inactive |
| CG30385 | SID104185823 | 1.09e5 | 55968 | – | 2726 | 5061 | inactive |
| EndoGI | SID104181756 | 1.05e5 | 92972 | – | 2726 | 7090 | inactive |
| DAT | SID104187186 | 1.04e5 | 56857 | – | 3184 | 4566 | inactive |
| dah | SID104200112 | 1.28e5 | 73450 | – | 3334 | 1776 | inactive |
| Npc2e | SID104195314 | 1.29e5 | 1.99e5 | – | 3894 | 5833 | inactive |
| PpD5 | SID104184433 | 1.02e5 | 56229 | – | 2980 | 5264 | inactive |
| ATPsynB | SID104189451 | 1.24e5 | 92544 | – | 4672 | 1635 | inactive |
| CG12910 | SID104186017 | 77193 | 26568 | – | 2960 | 870 | inactive |
| CG31219 | SID104194932 | 5.89e5 | 95857 | – | 29460 | 2739 | inactive |
| Phs | SID104190619 | 1.09e5 | 58611 | – | 4440 | 2041 | inactive |
| Pep | SID104191044 | 1.05e5 | 82904 | – | 3800 | 2950 | inactive |
| CG33773 | SID104193824 | 5.72e5 | 2.43e5 | – | 29369 | 4714 | inactive |
| CG12655 | SID104200470 | 82569 | 2.77e5 | – | 2225 | 10459 | inactive |
| Cpr67Fb | SID104190106 | 50453 | 34963 | 59499 | 4547 | 3523 | inactive |
| CG6454 | SID104195836 | 1.14e5 | 1.27e5 | – | 4524 | 4467 | inactive |
| 2mit | SID104193986 | 97816 | 79606 | – | 3144 | 1734 | inactive |
| 2mit | SID104195016 | 49111 | 77957 | – | 1853 | 2000 | inactive |
| CG2871 | SID104198022 | 1.15e5 | 8.14e5 | 3.15e5 | 3094 | 5874 | inactive |

Hits (from the list above):
| gene | PubChem SID | firefly Hh reporter signal, replicate 1 | firefly Hh reporter signal, replicate 2 | firefly Hh reporter signal, replicate 3 | Renilla reference signal, replicate 1 | Renilla reference signal, replicate 2 | call |
| --- | --- | --- | --- | --- | --- | --- | --- |
| RpS26 | SID104183212 | 35863 | 14578 | – | 1746 | 1530 | active |
